From PMC9170289
These are yes or no findings as the source states them, for the method shown. For part of these data: Binding calls can cover weak binding; strength is not graded here.

By UniProt entry, the sequences of proteins in these tests, tags left out. Where a name states a change or a piece, a line headed by the entry shows the natural chain unless it says otherwise.
UniProt P53550: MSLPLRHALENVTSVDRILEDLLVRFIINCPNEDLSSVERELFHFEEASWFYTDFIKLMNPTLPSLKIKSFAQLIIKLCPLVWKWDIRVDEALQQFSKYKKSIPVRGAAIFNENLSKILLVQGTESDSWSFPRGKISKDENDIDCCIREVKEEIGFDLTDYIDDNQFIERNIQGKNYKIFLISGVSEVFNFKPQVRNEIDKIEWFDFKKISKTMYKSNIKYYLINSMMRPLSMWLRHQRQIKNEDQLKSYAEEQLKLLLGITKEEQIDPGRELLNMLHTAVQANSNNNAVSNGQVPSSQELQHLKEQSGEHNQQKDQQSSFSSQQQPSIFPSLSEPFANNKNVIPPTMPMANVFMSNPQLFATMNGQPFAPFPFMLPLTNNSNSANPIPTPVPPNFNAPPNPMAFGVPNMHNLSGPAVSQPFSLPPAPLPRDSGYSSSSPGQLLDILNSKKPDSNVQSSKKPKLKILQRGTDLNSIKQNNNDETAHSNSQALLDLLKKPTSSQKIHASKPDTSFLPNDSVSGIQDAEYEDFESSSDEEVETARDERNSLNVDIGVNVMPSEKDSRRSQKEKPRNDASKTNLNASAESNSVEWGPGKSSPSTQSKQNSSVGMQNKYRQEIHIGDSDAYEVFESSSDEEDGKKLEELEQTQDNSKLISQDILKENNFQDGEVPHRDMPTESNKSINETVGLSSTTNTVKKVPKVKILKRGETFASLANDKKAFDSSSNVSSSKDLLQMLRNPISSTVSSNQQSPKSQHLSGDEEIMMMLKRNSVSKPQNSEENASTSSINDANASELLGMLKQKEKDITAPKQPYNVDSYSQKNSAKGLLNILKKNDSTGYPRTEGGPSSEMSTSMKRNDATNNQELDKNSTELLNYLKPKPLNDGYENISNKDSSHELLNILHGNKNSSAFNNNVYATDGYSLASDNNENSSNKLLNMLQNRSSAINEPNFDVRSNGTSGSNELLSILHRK

Columns and labels:
Experiment in all cases: two-hybrid; GAL4(DB) fusion and GAL4(AD) fusion cotransformed into the wild-type tester strain GGY1::171; X-Gal colony colour on SSX plates, 30°C; pairs said to be unaffected were also tested in upf1Δ, pat1Δ, scd6Δ, edc3Δ or dcp2-N245 derivatives
[1] = target: Dcp2 E3D (Edc3-binding motif E3 deleted) (S. cerevisiae) (UniProt P53550)
[2] = target: Dcp2 ID (inhibitory element IE deleted) (S. cerevisiae) (UniProt P53550)
[3] = target: Dcp2 LD1-4 (leucine-rich motifs L1 to L4 deleted) (S. cerevisiae) (UniProt P53550)
[4] = target: Dcp2 LD1-5 (leucine-rich motifs L1 to L5 deleted) (S. cerevisiae) (UniProt P53550)
[5] = target: Dcp2 LD1-6 (leucine-rich motifs L1 to L6 deleted) (S. cerevisiae) (UniProt P53550)
[6] = target: Dcp2 LD1-7 (leucine-rich motifs L1 to L7 deleted) (S. cerevisiae) (UniProt P53550)
[7] = target: Dcp2 LD1-8 (leucine-rich motifs L1 to L8 deleted) (S. cerevisiae) (UniProt P53550)
[8] = target: Dcp2 LD1-9 (all nine leucine-rich motifs L1 to L9 deleted) (S. cerevisiae) (UniProt P53550)
[9] = target: Dcp2 LD9-2 (leucine-rich motifs L9 to L2 deleted) (S. cerevisiae) (UniProt P53550)
[10] = target: Dcp2 LD9-3 (leucine-rich motifs L9 to L3 deleted) (S. cerevisiae) (UniProt P53550)
[11] = target: Dcp2 LD9-4 (leucine-rich motifs L9 to L4 deleted) (S. cerevisiae) (UniProt P53550)
[12] = target: Dcp2 LD9-6 (leucine-rich motifs L9 to L6 deleted) (S. cerevisiae) (UniProt P53550)
[13] = target: Dcp2 U1D1-U1D2 (both Upf1-binding motifs deleted) (S. cerevisiae) (UniProt P53550)
[14] = target: Dcp2 E3D-U1D1-LD1-9 (S. cerevisiae) (UniProt P53550)
[15] = target: Dcp2 E3D-U1D2-LD1-9 (S. cerevisiae) (UniProt P53550)
[16] = target: Dcp2 E3D1-U1D1-LD1-9 (S. cerevisiae) (UniProt P53550)
[17] = target: Dcp2 E3D1-U1D2-LD1-9 (S. cerevisiae) (UniProt P53550)
[18] = target: Dcp2 U1D1 (first Upf1-binding motif U1_1 deleted) (S. cerevisiae) (UniProt P53550)
[19] = target: Dcp2 U1D2 (second Upf1-binding motif U1_2 deleted) (S. cerevisiae) (UniProt P53550)
[20] = target: Dcp2 LD1-3 (leucine-rich motifs L1 to L3 deleted) (S. cerevisiae) (UniProt P53550)
[21] = target: Dcp2 LD9 (last leucine-rich motif L9 deleted) (S. cerevisiae) (UniProt P53550)

Measured: binding

B1: Edc3 (protein, UniProt P39998 1-551)
chain: MSQFVGFGVQVELKDGKLIQGKIAKATSKGLTLNDVQFGDGGKSQAFKVRASRLKDLKVLTVASQSGKRKQQRQQQQQNDYNQNRGEHIDWQDDDVSKIKQQEDFDFQRNLGMFNKKDVFAQLKQNDDILPENRLQGHNRKQTQLQQNNYQNDELVIPDAKKDSWNKISSRNEQSTHQSQPQQDAQDDLVLEDDEHEYDVDDIDDPKYLPITQSLNITHLIHSATNSPSINDKTKGTVINDKDQVLAKLGQMIISQSRSNSTSLPAANKQTTIRSKNTKQNIPMATPVQLLEMESITSEFFSINSAGLLENFAVNASFFLKQKLGGRARLRLQNSNPEPLVVILASDSNRSGAKALALGRHLCQTGHIRVITLFTCSQNELQDSMVKKQTDIYKKCGGKIVNSVSSLESAMETLNSPVEIVIDAMQGYDCTLSDLAGTSEVIESRIKSMISWCNKQRGSTKVWSLDIPNGFDAGSGMPDIFFSDRIEATGIICSGWPLIAINNLIANLPSLEDAVLIDIGIPQGAYSQRTSLRKFQNCDLFVTDGSLLLDL
no binding: [1]
not listed: [14] | [15] | [16] | [17] | [18] | [19] | [20] | [21]
binds: all other assays above

B2: Upf1 (protein, UniProt P30771 1-971)
chain: MVGSGSHTPYDISNSPSDVNVQPATQLNSTLVEDDDVDNQLFEEAQVTETGFRSPSASDNSCAYCGIDSAKCVIKCNSCKKWFCNTKNGTSSSHIVNHLVLSHHNVVSLHPDSDLGDTVLECYNCGRKNVFLLGFVSAKSEAVVVLLCRIPCAQTKNANWDTDQWQPLIEDRQLLSWVAEQPTEEEKLKARLITPSQISKLEAKWRSNKDATINDIDAPEEQEAIPPLLLRYQDAYEYQRSYGPLIKLEADYDKQLKESQALEHISVSWSLALNNRHLASFTLSTFESNELKVAIGDEMILWYSGMQHPDWEGRGYIVRLPNSFQDTFTLELKPSKTPPPTHLTTGFTAEFIWKGTSYDRMQDALKKFAIDKKSISGYLYYKILGHQVVDISFDVPLPKEFSIPNFAQLNSSQSNAVSHVLQRPLSLIQGPPGTGKTVTSATIVYHLSKIHKDRILVCAPSNVAVDHLAAKLRDLGLKVVRLTAKSREDVESSVSNLALHNLVGRGAKGELKNLLKLKDEVGELSASDTKRFVKLVRKTEAEILNKADVVCCTCVGAGDKRLDTKFRTVLIDESTQASEPECLIPIVKGAKQVILVGDHQQLGPVILERKAADAGLKQSLFERLISLGHVPIRLEVQYRMNPYLSEFPSNMFYEGSLQNGVTIEQRTVPNSKFPWPIRGIPMMFWANYGREEISANGTSFLNRIEAMNCERIITKLFRDGVKPEQIGVITPYEGQRAYILQYMQMNGSLDKDLYIKVEVASVDAFQGREKDYIILSCVRANEQQAIGFLRDPRRLNVGLTRAKYGLVILGNPRSLARNTLWNHLLIHFREKGCLVEGTLDNLQLCTVQLVRPQPRKTERPMNAQFNVESEMGDFPKFQDFDAQSMVSFSGQIGDFGNAFVDNTELSSYINNEYWNFENFKSAFSQKQNRNEIDDRNLYQEEASHLNSNFARELQREEQKHELSKDFSNLGI
no binding: [14] | [15] | [16] | [17] | [13]
not listed: [20] | [21]
binds: all other assays above

B3: Scd6 (protein, UniProt P45978 1-349)
chain: MSQYIGKTISLISVTDNRYVGLLEDIDSEKGTVTLKEVRCFGTEGRKNWGPEEIYPNPTVYNSVKFNGSEVKDLSILDANINDIQPVVPQMMPPASQFPPQQAQSPPQAQAQAHVQTNPQVPKPESNVPAAVAGYGVYTPTSTETATASMNDKSTPQDTNVNSQSRERGKNGENEPKYQRNKNRSSNRPPQSNRNFKVDIPNEDFDFQSNNAKFTKGDSTDVEKEKELESAVHKQDESDEQFYNKKSSFFDTISTSTETNTNMRWQEEKMLNVDTFGQASARPRFHSRGLGRGRGNYRGNRGNRGRGGQRGNYQNRNNYQNDSGAYQNQNDSYSRPANQFSQPPSNVEF
no binding: [1]
binds: [2] | [20] | [3] | [21] | [18] | [19]
